Reference: patent publication US9238030B2, “Methods for treatment of diseases and disorders related to transducin β-like protein 1 (TBL1) activity, including myeloproliferative neoplasia and chronic myeloid leukemia” (Beta Cat Pharmaceuticals, LLC, priority 2011, dated 2016)
At least one compound was matched to its structure with a doubt left.

What was measured:
K562 cells = assay: Apoptosis of CML cells, annexin V / TOPRO3 flow cytometry; format: cell-based, human; settings: K562, in combination with Compound 1, 48 hours
Experimental: (§1) Briefly, cell lines K562 (human immortalized myelogenous leukemia line) and LAMA-84 (a human leucocytic cell line) were seeded in medium containing 10% FBS and penicillin/streptomycin. After 24 hours, the cells were treated with Compound 1 for 48 hours. At the end of the treatment, the cells were washed with 1×PBS and stained with annexin V and TOPRO3 iodide. The percentages of apoptotic cells were determined by flow cytometry.
(§2) Briefly, the cell lines K562 and LAMA-84, were seeded in medium containing 10% FBS and penicillin/streptomycin. After 24 hours, the cells were treated with either: 1) Compound 1 alone; or 2) in combination with panobinostat and nilotinib for 48 hours. At the end of treatment, cells were washed with 1×PBS and stained with annexin V and TOPRO3 iodide. The percentages of apoptotic cells were determined by flow cytometry.

LAMA-84 cells = assay: as above; format: cell-based, human; settings: LAMA-84, in combination with Compound 1, 48 hours
Experimental: as §1, §2

`Cc1[nH]c2ccccc2c1CCNCc1ccc(/C=C/C(=O)NO)cc1` [Panobinostat, panobinostat, reference compound] was tested, and the “effect on apoptosis induced by Compound 1” value (K562 cells) was “enhanced” and the “effect on apoptosis induced by Compound 1” value (LAMA-84 cells) was “enhanced”.
